The results are deposited in PubChem (AID1159506; NCATS, 2015).

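Genome-wide siRNA knockdown in TC32 Ewing sarcoma cells, comparing luciferase light from an NR0B1-promoter reporter with a CMV-promoter reporter 48 hours after transfection.
Each siRNA was applied at 20 nM.
A z-score of the log NR0B1-over-CMV signal, less the median of siRNAs with the same seed; more negative means a stronger specific loss of the NR0B1 reporter.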

This is part of the screen; most of the strongest results are not listed here.
Sequences are the guide (antisense) strand, without overhang.

UCAGGUACGAGAACUGCCG against MRPS2 gave seed-corrected z-score -0.467. With UUUGUCUAGUGUCUCAAGC against OLFM4 the assay gave seed-corrected z-score 0.02209. With AAGGCUCUCACUAUUUCCC against ZNF101 the assay gave seed-corrected z-score -0.1162. Result for AAUUGUAGCAGCUAUAAGC against MTMR1 was seed-corrected z-score 1.138. For UCAAUUCUACCCUUUAUCC against DIDO1 the result was seed-corrected z-score 1.625.

AGAUUUUACACUCAACAGG against GTF2H2 read seed-corrected z-score 1.383. For AAAGCUUCAGUUAAAGGAC against NDUFB9 the result was seed-corrected z-score 0.8089. With UUUGUUCACUUGUACGACG against CACNA1A the assay gave seed-corrected z-score 0.1332. UUUGUUUGUCAAUUCGUUC against IL6 gave seed-corrected z-score 0.4351. Result for AAGCUAUCCUCUUUCCUCU against SERF1A was seed-corrected z-score 0.2169.

Result for UCUUUGUAGCGGUUCUUCC against PTPN18 was seed-corrected z-score -0.5492. With AUACGUUCCAGGAAGUCAC against POLL the assay gave seed-corrected z-score 0.4431. Result for UAAGAUACUGGGUUCUCGC against TXNDC16 was seed-corrected z-score 0.1621. UGAGGUUCCACAGGGUCAC against CD300LG read seed-corrected z-score -0.1482. UCACCUCUUCUAAUUGACC against NDUFA5 read seed-corrected z-score 0.6079.

With UCAUAGUAGAGGUUCAUCU against FOXI1 the assay gave seed-corrected z-score -0.8453. UCCAUUUAUAGUACGGCCG against ADH4 gave seed-corrected z-score -0.5804. With UAUUUGCCUGAAAUGGAUG against NEK3 the assay gave seed-corrected z-score -0.3264. UGAUCAUUUCGUUUUCUUC against MLN read seed-corrected z-score -0.1255. UUAGCUAGAUUGGUGUUGG against MYH2 gave seed-corrected z-score -0.2525.

For UAAAAGUCUGGUGUCAAGC against FAAP24 the result was seed-corrected z-score 0.1978. With GUAGGGCUCUGUGCAGAUC against NDOR1 the assay gave seed-corrected z-score -0.2705. With UUUACUUCUGGGAGGAUCC against FCMR the assay gave seed-corrected z-score 0.3953. AAAGAUUCCACUGUACCGC against SLC26A5 gave seed-corrected z-score 0.6213. For UCUGGUAUGAAUCUGUUGG against OR51V1 the result was seed-corrected z-score 1.316.

With AUGGAGUUGAAAUUGUGCC against GPR35 the assay gave seed-corrected z-score 0.8665. For UUGGGCUUUAGAGCUUUGC against TXNDC12 the result was seed-corrected z-score -0.6148. With UUUGAGCUGAAAAACCGGC against NEK7 the assay gave seed-corrected z-score 0.3765. Result for UAUCGGAAAACGCGAAUUC against PCDHA1 was seed-corrected z-score 0.3099. UAAGGUGCCCGAUAGUCGA against RASGEF1C read seed-corrected z-score -0.2805.

Result for UCUCGAACCACCUUCAGCU against TRIM9 was seed-corrected z-score 0.3655. UGGGAGUGGAGUAUCAUGG against GUCA2A read seed-corrected z-score 0.3863. Result for UGCGCUCCUAGAGUUCCUG against SPEF1 was seed-corrected z-score 0.732. AGCGUGAGAACCAACAGGC against PCDHA9 read seed-corrected z-score 0.5721. Result for UGAUCUUUAGCAAAUGGUG against MAGEA12 was seed-corrected z-score -0.3475.

For UAUAUUACACUAUAAAACC against ID4 the result was seed-corrected z-score 0.6021. UACUGUACUUCUCGCGGCC against RAB11FIP5 gave seed-corrected z-score 0.9751. AAACCGUCCCUUGACGUGC against TLDC2 read seed-corrected z-score -0.1056. UGUUCAGACACUCAUUUCC against CHMP6 gave seed-corrected z-score 0.1103. Result for AAAGGUUUUUGUCUGCCUC against CRTC1 was seed-corrected z-score 0.6513.

AAUGGUAUCAGCGGGUUCU against DNAAF3 read seed-corrected z-score 0.5979. Result for UUUCUUAGGAAGCAUCUCC against PRRG1 was seed-corrected z-score -0.8309. For AUCUUGAUAAACAUGUUCC against PDRG1 the result was seed-corrected z-score 1.031. For AAAGGUACGAACCCAUCCC against CLDN6 the result was seed-corrected z-score 0.5218. Result for UGGGUUACAUCGACUGACC against TRH was seed-corrected z-score -0.05772.

With UGCAUGUACAUCUUGAAGC against IFIT5 the assay gave seed-corrected z-score -0.1597. UUUCUGAUGUGGACCAUCC against ASF1A read seed-corrected z-score 0.06762. AACGGUAUGAUCAAAAGAC against DAW1 gave seed-corrected z-score 0.9423. ACUUCGAUCACCUUAAGUC against C16orf70 gave seed-corrected z-score -0.03587. For UAUUUCAGAAAGGUAAUUC against SLC23A1 the result was seed-corrected z-score 0.763.